# Results published in the supplement of paper PMC8728848.
# The list shows a part of the results.
# Legend:
# Assay in all cases: glycan array binding signal (z-score within array); higher = stronger binding
# Settings in all cases: glycan notation: IUPAC condensed, linker removed
# [1] = target: Fuc(a1-2)Gal(b1-4)[Fuc(a1-3)]GlcNAc
# How it was run: (§1)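 From the Consortium for Functional Glycomics database, 3228 arrays were curated, keeping only those whose protein sequence was available. Binding is given as a within-array Z-score averaged across arrays sharing a protein sequence and across linkers. Negative Z-scores can be read as non-binding.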
# [2] = target: Fuc(a1-2)Gal(b1-4)[Fuc(a1-3)]GlcNAc(b1-2)Man(a1-3)[Fuc(a1-2)Gal(b1-4)[Fuc(a1-3)]GlcNAc(b1-2)Man(a1-6)]Man(b1-4)GlcNAc(b1-4)GlcNAc
# How it was run: as §1
# [3] = target: Fuc(a1-2)Gal(b1-4)[Fuc(a1-3)]GlcNAc(b1-2)[Fuc(a1-2)Gal(b1-4)[Fuc(a1-3)]GlcNAc(b1-4)]Man(a1-3)[Fuc(a1-2)Gal(b1-4)[Fuc(a1-3)]GlcNAc(b1-2)Man(a1-6)]Man(b1-4)GlcNAc(b1-4)GlcNAc
# How it was run: as §1
# [4] = target: Fuc(a1-2)Gal(b1-4)[Fuc(a1-3)]GlcNAc(b1-3)Gal(b1-4)[Fuc(a1-3)]GlcNAc
# How it was run: as §1
# [5] = target: Fuc(a1-2)Gal(b1-4)[Fuc(a1-3)]GlcNAc(b1-3)Gal(b1-4)[Fuc(a1-3)]GlcNAc(b1-3)Gal(b1-4)[Fuc(a1-3)]GlcNAc
# How it was run: as §1
# [6] = target: Fuc(a1-2)Gal(b1-4)[Fuc(a1-3)]GlcNAc(b1-3)GalNAc
# How it was run: as §1
# Fuc(a1-2)Gal6S(b1-4)Glc = target: Fuc(a1-2)Gal6S(b1-4)Glc
# How it was run: as §1
# [7] = target: Fuc(a1-2)Gal6S(b1-4)Glc6S
# How it was run: as §1
# [8] = target: Fuc(a1-2)Gal6S(b1-4)GlcNAc
# How it was run: as §1
# Fuc(a1-2)[Gal(a1-3)]Gal = target: Fuc(a1-2)[Gal(a1-3)]Gal
# How it was run: as §1
# [9] = target: Fuc(a1-2)[Gal(a1-3)]Gal(b1-3)GalNAc
# How it was run: as §1
# [10] = target: Fuc(a1-2)[Gal(a1-3)]Gal(b1-3)GlcNAc
# How it was run: as §1
# [11] = target: Fuc(a1-2)[Gal(a1-3)]Gal(b1-3)GlcNAc(b1-2)Man(a1-3)[Fuc(a1-2)[Gal(a1-3)]Gal(b1-3)GlcNAc(b1-2)Man(a1-6)]Man(b1-4)GlcNAc(b1-4)GlcNAc
# How it was run: as §1
# [12] = target: Fuc(a1-2)[Gal(a1-3)]Gal(b1-3)GlcNAc(b1-2)Man(a1-3)[Fuc(a1-2)[Gal(a1-3)]Gal(b1-3)GlcNAc(b1-2)Man(a1-6)]Man(b1-4)GlcNAc(b1-4)[Fuc(a1-6)]GlcNAc
# How it was run: as §1
# [13] = target: Fuc(a1-2)[Gal(a1-3)]Gal(b1-3)GlcNAc(b1-3)GalNAc
# How it was run: as §1
# [14] = target: Fuc(a1-2)[Gal(a1-3)]Gal(b1-4)Glc
# How it was run: as §1
# [15] = target: Fuc(a1-2)[Gal(a1-3)]Gal(b1-4)GlcNAc
# How it was run: as §1
# [16] = target: Fuc(a1-2)[Gal(a1-3)]Gal(b1-4)GlcNAc(b1-2)Man(a1-3)[Fuc(a1-2)[Gal(a1-3)]Gal(b1-4)GlcNAc(b1-2)Man(a1-6)]Man(b1-4)GlcNAc(b1-4)GlcNAc
# How it was run: as §1
# [17] = target: Fuc(a1-2)[Gal(a1-3)]Gal(b1-4)GlcNAc(b1-2)Man(a1-3)[Fuc(a1-2)[Gal(a1-3)]Gal(b1-4)GlcNAc(b1-2)Man(a1-6)]Man(b1-4)GlcNAc(b1-4)[Fuc(a1-6)]GlcNAc
# How it was run: as §1
# [18] = target: Fuc(a1-2)[Gal(a1-3)]Gal(b1-4)GlcNAc(b1-3)GalNAc
# How it was run: as §1
# [19] = target: Fuc(a1-2)[Gal(a1-3)]Gal(b1-4)[Fuc(a1-3)]Glc
# How it was run: as §1
# [20] = target: Fuc(a1-2)[Gal(a1-3)]Gal(b1-4)[Fuc(a1-3)]GlcNAc
# How it was run: as §1
# [21] = target: Fuc(a1-2)[Gal(a1-3)]Gal(b1-4)[Fuc(a1-3)]GlcNAc(b1-3)GalNAc
# How it was run: as §1
# [22] = target: Fuc(a1-2)[Gal(a1-4)]Gal(b1-4)GlcNAc
# How it was run: as §1
# [23] = target: Fuc(a1-2)[GalNAc(a1-3)]Gal
# How it was run: as §1
# [24] = target: Fuc(a1-2)[GalNAc(a1-3)]Gal(b1-3)GalNAc(a1-3)[Fuc(a1-2)]Gal(b1-4)GlcNAc
# How it was run: as §1
# [25] = target: Fuc(a1-2)[GalNAc(a1-3)]Gal(b1-3)GlcNAc
# How it was run: as §1
# [26] = target: Fuc(a1-2)[GalNAc(a1-3)]Gal(b1-3)GlcNAc(b1-2)Man(a1-3)[Fuc(a1-2)[GalNAc(a1-3)]Gal(b1-3)GlcNAc(b1-2)Man(a1-6)]Man(b1-4)GlcNAc(b1-4)GlcNAc
# How it was run: as §1
# [27] = target: Fuc(a1-2)[GalNAc(a1-3)]Gal(b1-3)GlcNAc(b1-2)Man(a1-3)[Fuc(a1-2)[GalNAc(a1-3)]Gal(b1-3)GlcNAc(b1-2)Man(a1-6)]Man(b1-4)GlcNAc(b1-4)[Fuc(a1-6)]GlcNAc
# How it was run: as §1
# [28] = target: Fuc(a1-2)[GalNAc(a1-3)]Gal(b1-3)GlcNAc(b1-3)GalNAc
# How it was run: as §1
binder,measurement,setting,value
"DCL-1 (Homo sapiens), Q8IX05 (protein) MLRAALPALLLPLLGLAAAAVADCPSSTWIQFQDSCYIFLQEAIKVESIEDVRNQCTDHGADMISIHNEEENAFILDTLKKQWKGPDDILLGMFYDTDDASFKWFDNSNMTFDKWTDQDDDEDLVDTCAFLHIKTGEWKKGNCEVSSVEGTLCKTAIPYKRKYLSDNHILISALVIASTVILTVLGAIIWFLYKKHSDSRFTTVFSTAPQSPYNEDCVLVVGEENEYPVQFD",glycan array binding signal (z-score),[1],0.133
same,glycan array binding signal (z-score),[2],0.932
same,glycan array binding signal (z-score),[3],-0.152
same,glycan array binding signal (z-score),[4],0.568
same,glycan array binding signal (z-score),[5],1.28
same,glycan array binding signal (z-score),[6],1.87
same,glycan array binding signal (z-score),Fuc(a1-2)Gal6S(b1-4)Glc,-0.711
same,glycan array binding signal (z-score),[7],1.32
same,glycan array binding signal (z-score),[8],-0.605
same,glycan array binding signal (z-score),Fuc(a1-2)[Gal(a1-3)]Gal,-0.695
same,glycan array binding signal (z-score),[9],-0.288
same,glycan array binding signal (z-score),[10],3.01
same,glycan array binding signal (z-score),[11],0.517
same,glycan array binding signal (z-score),[12],0.561
same,glycan array binding signal (z-score),[13],0.63
same,glycan array binding signal (z-score),[14],-1.1
same,glycan array binding signal (z-score),[15],-0.77
same,glycan array binding signal (z-score),[16],-0.901
same,glycan array binding signal (z-score),[17],-0.114
same,glycan array binding signal (z-score),[18],-0.439
same,glycan array binding signal (z-score),[19],0.686
same,glycan array binding signal (z-score),[20],1.17
same,glycan array binding signal (z-score),[21],-0.85
same,glycan array binding signal (z-score),[22],-0.25
same,glycan array binding signal (z-score),[23],0.519
same,glycan array binding signal (z-score),[24],-0.795
same,glycan array binding signal (z-score),[25],-0.401
same,glycan array binding signal (z-score),[26],-0.009
same,glycan array binding signal (z-score),[27],-0.151
same,glycan array binding signal (z-score),[28],-0.237

# A different layout for part of the listing above.
binder	measurement	setting	value
DCL-1 (Homo sapiens), Q8IX05 (protein) MLRAALPALLLPLLGLAAAAVADCPSSTWIQFQDSCYIFLQEAIKVESIEDVRNQCTDHGADMISIHNEEENAFILDTLKKQWKGPDDILLGMFYDTDDASFKWFDNSNMTFDKWTDQDDDEDLVDTCAFLHIKTGEWKKGNCEVSSVEGTLCKTAIPYKRKYLSDNHILISALVIASTVILTVLGAIIWFLYKKHSDSRFTTVFSTAPQSPYNEDCVLVVGEENEYPVQFD	glycan array binding signal (z-score)	[8]	-0.605
same	glycan array binding signal (z-score)	[22]	-0.25
